Experimental data as given in article PMC11852716, “c-di-GMP phosphodiesterase ProE interacts with quorum sensing protein PqsE to promote pyocyanin production in Pseudomonas aeruginosa” (mSphere, 2025).

Amino acid sequences for entries named in this document (tags omitted). A change or cut given only in a name is not applied to a line headed by its entry.
UniProt Q9HTQ9: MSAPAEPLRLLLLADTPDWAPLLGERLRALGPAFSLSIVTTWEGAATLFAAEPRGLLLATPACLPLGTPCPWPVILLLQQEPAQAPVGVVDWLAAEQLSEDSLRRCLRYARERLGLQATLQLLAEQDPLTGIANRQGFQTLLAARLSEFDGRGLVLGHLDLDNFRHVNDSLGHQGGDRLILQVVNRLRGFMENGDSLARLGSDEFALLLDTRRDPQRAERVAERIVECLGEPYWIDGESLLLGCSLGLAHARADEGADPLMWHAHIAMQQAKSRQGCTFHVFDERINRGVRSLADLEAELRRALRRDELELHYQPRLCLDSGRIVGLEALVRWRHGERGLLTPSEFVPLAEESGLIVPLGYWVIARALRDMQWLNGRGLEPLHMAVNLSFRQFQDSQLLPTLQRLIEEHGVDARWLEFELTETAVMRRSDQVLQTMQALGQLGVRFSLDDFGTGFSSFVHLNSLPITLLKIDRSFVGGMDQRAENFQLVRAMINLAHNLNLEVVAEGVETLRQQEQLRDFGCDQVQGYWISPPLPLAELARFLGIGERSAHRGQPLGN

Target: ProE, bacterial two-hybrid fusion (Pseudomonas aeruginosa) (UniProt Q9HTQ9)
Experiment: two-hybrid; BacterioMatch II bacterial two-hybrid in E. coli XL1-Blue MRF' Kan; growth on M9+ His-deficient plate with 2.5 mM 3-AT, 37°C overnight

B1: LasI, bacterial two-hybrid fusion (protein, UniProt P33883 1-201)
chain: MIVQIGRREEFDKKLLGEMHKLRAQVFKERKGWDVSVIDEMEIDGYDALSPYYMLIQEDTPEAQVFGCWRILDTTGPYMLKNTFPELLHGKEAPCSPHIWELSRFAINSGQKGSLGFSDCTLEAMRALARYSLQNDIQTLVTVTTVGVEKMMIRAGLDVSRFGPHLKIGIERAVALRIELNAKTQIALYGGVLVEQRLAVS
In the case of B1, the binding is reported as “binds weakly”.

No constants are given. Whether binding was seen depends on the method and setting. Binding calls can cover weak binding; strength is not graded here. Where a sequence is shown, tags or fusion partners need not be part of it.
